{
  "source": "patent US20210369846A1",
  "about": "(priority 2018, published 2021)",
  "note": "Some entries share one result that the patent states for a list of compounds. Some ranges recur; such a range may be that of the whole group of compounds.",
  "data": [
    {"test_system": "male Sprague Dawley rats", "assay": "Red blood cells substitute in vivo test: gradual bleeding with compensation in rats under general anaesthesia", "parameters": "species or system rat", "settings": "0.5% w/v in Voluven", "procedure": "The study protocol was approved by the Local Ethical Committee (No. WAW2/057/2018), Warsaw University of Life Sciences, Warsaw, Poland. Study was carried out by the Department of Large Animal Diseases with the Clinic of the Faculty of Veterinary Medicine of the Warsaw University of Life Sciences in Warsaw. The study involved male Sprague Dawley rats (n=19; weight, 400±20 g; age, 8 to 12 weeks) obtained from the Mossakowski Medical Research Centre, Polish Academy of Sciences (Warsaw, Poland) divided into 4 non-equal groups (table below). The animals were kept in accordance with national animal welfare guidelines.\n12 h before the experiment, feedstuffs were removed from animals' cages without restrictions to the water. Animals were weighted for circulating blood volume calculation according to Lee and Blaufox (1985) and anesthetized by intramuscular injection of the mixture of Ceptor—0.1 mL (Scanvet), Butomidor—0.1 mL (Richter Pharma AG) and Bioketan—0.1 mL (Vetoquinol). Within 2 min after injection, animals were placed in the dorsal position, on Thermo-Controlled Surgery Platform (Braintree Scientific, USA) and the catheter for blood collection was implanted.\nA silicone catheter (Scientific Commodities INC, USA) was inserted into the left common jugular vein towards the heart and fastened with a tie (non-absorbable twisted strand, 4-0) for best fluid delivery and blood sampling. The catheter was kept filled with Ringer's fluid between the blood removals. The catheter's patency was maintained without the use of anti-clotting agents. The skin was not stitched, a swab moistened with saline solution was applied to the wound. […] Throughout the experiment, pulse and blood pressure were recorded in the Chart program (ADI, Australia). During the entire experiment, systolic and mean arterial blood readings were taken up to a blood pressure systolic threshold reading of 40 mm Hg between blood collections. […]", "values": [
      {"smiles": "O=C(O)CCCC(=O)OCCC(F)(F)C(F)(F)C(F)(F)C(F)(F)C(F)(F)C(F)(F)C(F)(F)C(F)(F)F", "note": "[2l3e]", "Survival of rats higher compared to the control group receiving Voluven": "7-10 intervals"},
      {"smiles": "O=C(O)CCC(=O)OCCC(F)(F)C(F)(F)C(F)(F)C(F)(F)C(F)(F)C(F)(F)C(F)(F)C(F)(F)F", "note": "[2j3c]", "Survival of rats higher compared to the control group receiving Voluven": "7-10 intervals"},
      {"smiles": "O=C(O)CCC(=O)OCCC(F)(F)C(F)(F)C(F)(F)C(F)(F)C(F)(F)C(F)(F)C(F)(F)C(F)(F)F", "note": "[2j3e]", "Survival of rats higher compared to the control group receiving Voluven": "7-10 intervals"}
    ]}
  ]
}
